Values from PubChem BioAssay AID504774 (Drosophila RNAi Screening Center, 2011).
The screen tested about 23,000 reagents; below is an unselected part of those with a known target gene and a result. 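Values are quantile-normalised luminescence on an arbitrary scale; higher means more cells surviving MMS.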 Names joined by + are all predicted targets of the reagent. Not all columns of the deposit are shown. Reagent sequences are not shown.

Screen: 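Fly genes whose loss alters survival after alkylation damage to DNA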 (primary screen)
System: Drosophila Kc167 cells
Reagent: long dsRNA against Drosophila genes, about 0.25 µg dsRNA per well
Duration: about 6 days: 3 days knock-down, then 3 days with or without MMS
Conditions: methyl methanesulphonate 0.004% (w/v) for 3 days after knock-down
Measured: 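Viability in wells given MMS, read as ATP luminescence, normalised by quantiles plate by plate and averaged across replicates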
Direction: mean viability with MMS: higher = more surviving cells after MMS

Or59b (Odorant receptor 59b) [DRSC04632]
- mean viability with MMS: 3.55e6

CG5131 [DRSC02817]
- mean viability with MMS: 3.62e6

mdy (midway) [DRSC01559]
- mean viability with MMS: 3.54e6

mdy (midway) [DRSC02250]
- mean viability with MMS: 3.64e6

mthl9 (methuselah-like 9) [DRSC08506]
- mean viability with MMS: 3.62e6

CG18343 [DRSC06726]
- mean viability with MMS: 3.42e6

CG2611 [DRSC02710]
- mean viability with MMS: 3.34e6

FER (FER tyrosine kinase) [DRSC12735]
- mean viability with MMS: 3.44e6

FER (FER tyrosine kinase) [DRSC16673]
- mean viability with MMS: 3.50e6

CG14569 [DRSC11730]
- mean viability with MMS: 3.50e6

VhaM9.7-d (Vacuolar H[+] ATPase M9.7 subunit d) [DRSC15028]
- mean viability with MMS: 3.54e6

arm (armadillo) [DRSC18738]
- mean viability with MMS: 3.59e6

sunn [DRSC21659]
- mean viability with MMS: 3.40e6

BckdhB (Branched chain keto acid dehydrogenase E1 subunit beta) [DRSC21183]
- mean viability with MMS: 3.60e6

Continued (4 carried over from the part before).
VhaM9.7-d (Vacuolar H[+] ATPase M9.7 subunit d) [DRSC15028]
- mean viability with MMS: 3.54e6

arm (armadillo) [DRSC18738]
- mean viability with MMS: 3.59e6

sunn [DRSC21659]
- mean viability with MMS: 3.40e6

BckdhB (Branched chain keto acid dehydrogenase E1 subunit beta) [DRSC21183]
- mean viability with MMS: 3.60e6

Mnat9 (microtubule-associated Nat9) [DRSC14325]
- mean viability with MMS: 3.46e6

CG14864 [DRSC14987]
- mean viability with MMS: 3.34e6

Ubr3 (Ubr3 ubiquitin ligase) [DRSC17987]
- mean viability with MMS: 3.50e6

Ubr3 (Ubr3 ubiquitin ligase) [DRSC17997]
- mean viability with MMS: 3.56e6

hwt (heavyweight) [DRSC19386]
- mean viability with MMS: 1.68e6

CG8369 [DRSC16413]
- mean viability with MMS: 3.51e6

crok (crooked) [DRSC02593]
- mean viability with MMS: 3.67e6

crok (crooked) [DRSC21349]
- mean viability with MMS: 3.81e6

Mal-A7 (Maltase A7) [DRSC06077]
- mean viability with MMS: 3.59e6

CG10862 [DRSC08170]
- mean viability with MMS: 3.56e6

Edg91 (Ecdysone-dependent gene 91) [DRSC16657]
- mean viability with MMS: 3.21e6

cg (combgap) [DRSC07650]
- mean viability with MMS: 2.25e6

cg (combgap) [DRSC23142]
- mean viability with MMS: 3.39e6

Polr3K + Tcs1 [DRSC05988]
- mean viability with MMS: 3.64e6

CG12506 [DRSC00347]
- mean viability with MMS: 3.37e6

CG7798 [DRSC07047]
- mean viability with MMS: 3.65e6

CG17199 [DRSC15192]
- mean viability with MMS: 3.56e6

Irbp18 (Inverted repeat binding protein 18 kDa) [DRSC10612]
- mean viability with MMS: 3.41e6

CG32835 (retired record) [DRSC22693]
- mean viability with MMS: 3.61e6

CG42500 [DRSC14822]
- mean viability with MMS: 3.47e6

gd (gastrulation-defective) [DRSC20336]
- mean viability with MMS: 3.44e6
